In this series the test system is SKPs. Nature of the series: Transcriptome analysis of secondary SKP spheres from drug-treated skin. As to conditions: SKPs from drug-treated wounded skin, p<0.01.

For the substance trimebutine maleate [TM], the “number of differentially expressed genes compared to control skin” value is 291 genes.

The values are drawn from US9962360B2, “Compositions and methods for enhancing hair growth, promoting skin regeneration, and wound healing” (The Hospital for Sick Children, priority 2014, dated 2018).
